In paper PMC3120833 one finds binding data, which are given here for 1 substance.

Protein sequences, listed by entry. Tags and fused reporters are not part of them.
UniProt Q93009: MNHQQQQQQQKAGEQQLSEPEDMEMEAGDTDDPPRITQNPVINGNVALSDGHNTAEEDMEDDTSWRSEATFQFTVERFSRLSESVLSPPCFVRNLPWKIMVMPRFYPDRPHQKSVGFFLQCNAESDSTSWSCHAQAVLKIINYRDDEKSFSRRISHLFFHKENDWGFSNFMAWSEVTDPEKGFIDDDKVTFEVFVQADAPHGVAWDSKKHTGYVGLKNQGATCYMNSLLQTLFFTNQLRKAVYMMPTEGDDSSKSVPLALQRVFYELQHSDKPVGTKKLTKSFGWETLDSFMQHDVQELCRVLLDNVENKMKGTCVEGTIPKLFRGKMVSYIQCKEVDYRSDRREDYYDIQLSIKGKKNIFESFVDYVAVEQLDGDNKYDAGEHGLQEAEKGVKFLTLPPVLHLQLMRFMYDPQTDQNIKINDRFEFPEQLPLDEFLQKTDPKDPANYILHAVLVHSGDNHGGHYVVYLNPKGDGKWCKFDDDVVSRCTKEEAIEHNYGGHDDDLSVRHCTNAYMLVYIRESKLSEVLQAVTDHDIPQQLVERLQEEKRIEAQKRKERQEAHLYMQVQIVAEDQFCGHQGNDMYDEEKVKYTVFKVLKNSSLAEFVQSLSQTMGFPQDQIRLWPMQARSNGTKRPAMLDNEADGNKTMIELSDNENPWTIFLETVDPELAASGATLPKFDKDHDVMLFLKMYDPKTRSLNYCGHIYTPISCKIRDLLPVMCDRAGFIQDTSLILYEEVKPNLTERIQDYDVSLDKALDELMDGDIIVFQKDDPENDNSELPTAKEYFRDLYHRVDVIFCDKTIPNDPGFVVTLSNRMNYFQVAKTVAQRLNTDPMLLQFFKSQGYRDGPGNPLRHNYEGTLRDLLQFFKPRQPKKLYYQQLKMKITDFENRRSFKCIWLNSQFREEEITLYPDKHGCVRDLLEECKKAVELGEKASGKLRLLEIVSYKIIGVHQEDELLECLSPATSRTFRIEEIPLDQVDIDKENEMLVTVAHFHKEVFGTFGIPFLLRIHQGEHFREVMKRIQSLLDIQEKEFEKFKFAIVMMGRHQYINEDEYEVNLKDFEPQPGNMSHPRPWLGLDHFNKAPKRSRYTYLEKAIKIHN

In the test the target is T1, ING1, endogenous in HEK293 cells (human (endogenous in HEK293)) (UniProt Q9UK53).
T1 sequence: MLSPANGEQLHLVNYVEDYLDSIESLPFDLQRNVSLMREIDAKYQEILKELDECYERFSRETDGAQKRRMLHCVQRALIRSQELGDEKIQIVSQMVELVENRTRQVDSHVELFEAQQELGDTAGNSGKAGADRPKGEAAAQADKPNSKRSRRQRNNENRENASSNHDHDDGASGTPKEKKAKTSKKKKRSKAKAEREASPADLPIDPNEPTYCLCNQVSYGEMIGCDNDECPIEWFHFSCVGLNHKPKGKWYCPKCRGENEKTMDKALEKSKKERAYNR
The experiment in a line: co-IP; HEK293 cells harvested and immunoprecipitated with anti-ING1 or anti-HAUSP, controls mouse anti-GST and rabbit pre-immune serum; blotted for HAUSP (USP7) or ING1.

These are yes or no findings as the source states them, for the method shown. Binding seen in cells or lysates may run through a third protein. Some entries that bind do so weakly or less than the wild type.

“herpesvirus-associated ubiquitin-specific protease (HAUSP), endogenous in HEK293 cells (from UniProt Q93009 1-1102) (enzyme)”: the binding entry was “binds”.
